Data as given in the supplement of paper PMC5407854, “Inhibitor of ppGalNAc-T3-mediated O-glycosylation blocks cancer cell invasiveness and lowers FGF23 levels” (eLife, 2017).
Some of the results follow. Most values lie at the level of the controls, where differences are scatter.

System: ppGalNAc-T3 sensor
Assay: T3 sensor activation Q score (MG/GFP ratio z-score vs DMSO controls) (SD units); higher = more sensor activation (inhibition of ppGalNAc-T3 glycosylation)
Conditions: HEK293 sensor cells; 10 µM; 6 h
Procedure: (§1)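 Cells were treated with compound at 10 uM for 6 h, then MG/GFP ratio was read by flow cytometry (10,000 cells per well, duplicate wells). Q = (R - R_neg)/SD_neg relative to DMSO vehicle controls; the signal rises when the glycosyltransferase is inhibited.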

Row | SMILES | T3 sensor activation Q score
1 | Cc1ccccc1CN1CCN(c2cccc(Cl)c2)CC1 | 0.085
2 | Fc1ccccc1N1CCN(Cc2ccccc2)CC1 | -0.35
3 | Clc1ccccc1N1CCN(Cc2ccccc2)CC1 | 0.21
4 | COc1ccc(N2CCN(Cc3ccc(Br)cc3)CC2)cc1 | -0.645
5 | Cc1ccccc1N1CCN(Cc2ccc(N(C)C)cc2)CC1 | -0.245
6 | OCCN1CCN(Cc2ccccc2)CC1 | 1.32
7 | COc1ccccc1CN1CCN(c2ccccc2)CC1 | 0.39
8 | CN(C)c1ccc(CN2CCN(c3ccc(F)cc3)CC2)cc1 | -0.16

System: ppGalNAc-T2 sensor
Assay: T2 sensor activation Q score (MG/GFP ratio z-score vs DMSO controls) (SD units); higher = more sensor activation (inhibition of ppGalNAc-T2 glycosylation)
Conditions: HEK293 sensor cells; 10 µM; 6 h
Procedure: as §1

Row | SMILES | T2 sensor activation Q score
9 | Cc1ccccc1CN1CCN(c2cccc(Cl)c2)CC1 | 0.275
10 | Fc1ccccc1N1CCN(Cc2ccccc2)CC1 | -0.385
11 | CN1CCC(O)(c2ccccc2)C(C(=O)c2ccccc2)C1 (stereo not drawn) | 0.955
12 | CN1CCN(Cc2ccco2)CC1 | 0.795
13 | Cc1cccc(N2CCN(Cc3ccccc3[N+](=O)[O-])CC2)c1C | 0.2
14 | Clc1ccccc1N1CCN(Cc2ccccc2)CC1 | -0.145
15 | COc1ccc(N2CCN(Cc3ccc(Br)cc3)CC2)cc1 | 0.35
16 | Cc1ccccc1N1CCN(Cc2ccccc2)CC1 | -0.325
17 | CCN1CCN(Cc2cccc(F)c2)CC1 | -1.08
18 | Brc1ccc(CN2CCN(c3ccccc3)CC2)cc1 | -1.03
19 | Cc1ccccc1CN1CCN(c2ccccc2C)CC1 | 0.325
20 | CCOc1ccc(CN2CCN(c3ccccc3OC)CC2)cc1 | -0.765
21 | Clc1cccc(N2CCN(Cc3ccc4c(c3)OCO4)CC2)c1 | 0.49
22 | O=[N+]([O-])c1ccccc1CN1CCN(c2cccc(Cl)c2)CC1 | 1.75
23 | c1ccc2c(CCNC3C4CC5CC(C4)CC3C5)c[nH]c2c1 (stereo not drawn) | -0.255

Given with tabs: entries from further up.
Row	SMILES	T2 sensor activation Q score
12	CN1CCN(Cc2ccco2)CC1	0.795
13	Cc1cccc(N2CCN(Cc3ccccc3[N+](=O)[O-])CC2)c1C	0.2
